Measurements taken from publication doi:10.1101/2025.10.30.685591.
Where two headings read alike, the source gives them in different places. No constants are given. Whether binding was seen depends on the method and setting. Binding seen in cells or lysates may run through a third protein. A yes stands for co-enrichment or nearness to the bait. Other partners may have been found. For part of these data: No binding means not detected with the bait.

Amino acid sequences for entries named in this document (tags omitted).
UniProt Q9D0L8: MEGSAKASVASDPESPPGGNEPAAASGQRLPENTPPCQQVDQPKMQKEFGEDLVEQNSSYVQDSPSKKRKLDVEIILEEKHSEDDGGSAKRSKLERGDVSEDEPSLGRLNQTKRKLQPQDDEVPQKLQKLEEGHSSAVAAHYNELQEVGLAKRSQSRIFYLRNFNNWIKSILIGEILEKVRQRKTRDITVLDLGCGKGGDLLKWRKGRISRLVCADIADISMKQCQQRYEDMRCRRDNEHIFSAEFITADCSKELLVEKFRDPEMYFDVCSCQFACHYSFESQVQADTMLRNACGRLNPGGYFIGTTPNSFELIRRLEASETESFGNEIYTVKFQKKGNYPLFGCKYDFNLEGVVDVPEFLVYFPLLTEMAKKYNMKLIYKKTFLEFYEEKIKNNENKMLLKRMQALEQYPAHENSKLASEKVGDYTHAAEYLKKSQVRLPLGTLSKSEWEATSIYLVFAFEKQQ
UniProt Q6P5F9: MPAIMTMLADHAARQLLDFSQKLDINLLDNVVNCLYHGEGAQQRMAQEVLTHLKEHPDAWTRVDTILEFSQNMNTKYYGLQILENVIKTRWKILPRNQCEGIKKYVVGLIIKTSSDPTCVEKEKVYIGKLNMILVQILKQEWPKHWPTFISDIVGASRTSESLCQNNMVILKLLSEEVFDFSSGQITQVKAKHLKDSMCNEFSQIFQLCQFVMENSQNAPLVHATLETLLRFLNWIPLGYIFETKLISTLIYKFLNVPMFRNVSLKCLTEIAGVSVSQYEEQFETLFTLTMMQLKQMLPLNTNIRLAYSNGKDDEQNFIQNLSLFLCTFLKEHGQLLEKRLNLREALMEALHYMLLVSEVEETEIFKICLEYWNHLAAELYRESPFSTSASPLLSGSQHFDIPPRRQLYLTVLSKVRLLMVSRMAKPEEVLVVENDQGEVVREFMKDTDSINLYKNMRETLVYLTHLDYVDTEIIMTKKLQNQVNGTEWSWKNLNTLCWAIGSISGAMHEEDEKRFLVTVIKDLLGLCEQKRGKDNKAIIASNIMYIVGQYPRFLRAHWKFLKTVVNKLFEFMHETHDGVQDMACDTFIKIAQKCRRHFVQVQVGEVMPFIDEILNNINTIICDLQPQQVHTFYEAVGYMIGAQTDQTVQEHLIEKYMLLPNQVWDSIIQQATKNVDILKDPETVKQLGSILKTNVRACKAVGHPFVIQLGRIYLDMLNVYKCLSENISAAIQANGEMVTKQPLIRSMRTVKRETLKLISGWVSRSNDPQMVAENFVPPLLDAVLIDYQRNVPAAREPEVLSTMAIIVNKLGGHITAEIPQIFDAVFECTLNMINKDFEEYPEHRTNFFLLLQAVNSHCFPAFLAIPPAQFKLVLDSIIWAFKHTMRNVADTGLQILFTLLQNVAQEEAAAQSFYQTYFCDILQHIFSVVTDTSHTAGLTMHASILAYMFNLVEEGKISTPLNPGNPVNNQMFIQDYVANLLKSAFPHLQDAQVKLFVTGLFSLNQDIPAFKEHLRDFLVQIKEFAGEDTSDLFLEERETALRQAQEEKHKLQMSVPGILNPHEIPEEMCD
UniProt P28652: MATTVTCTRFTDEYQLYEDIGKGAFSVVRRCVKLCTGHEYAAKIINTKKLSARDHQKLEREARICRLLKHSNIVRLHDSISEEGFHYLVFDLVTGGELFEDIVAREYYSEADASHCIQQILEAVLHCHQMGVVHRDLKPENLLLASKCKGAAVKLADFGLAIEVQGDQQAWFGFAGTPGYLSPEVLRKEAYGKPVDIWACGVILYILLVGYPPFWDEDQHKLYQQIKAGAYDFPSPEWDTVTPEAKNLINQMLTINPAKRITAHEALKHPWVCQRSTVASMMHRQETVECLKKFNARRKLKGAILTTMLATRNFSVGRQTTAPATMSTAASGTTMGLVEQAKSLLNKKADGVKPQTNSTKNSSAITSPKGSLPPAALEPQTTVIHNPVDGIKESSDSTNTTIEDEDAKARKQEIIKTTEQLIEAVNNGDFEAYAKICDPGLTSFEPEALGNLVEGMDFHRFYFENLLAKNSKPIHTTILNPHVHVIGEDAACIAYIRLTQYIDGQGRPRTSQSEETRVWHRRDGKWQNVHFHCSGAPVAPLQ

Columns and labels:
[1] = biological target: RNA cap guanine-7 methyltransferase, RNMT (endogenous, mouse) (mouse (endogenous in brain and primary neurons)) (UniProt Q9D0L8); test: affinity purification with mass spectrometry
[2] = biological target: RNA cap guanine-7 methyltransferase, RNMT (endogenous, mouse) (mouse (endogenous in brain and primary neurons)) (UniProt Q9D0L8); test: affinity purification with mass spectrometry; remark: listed apart in the source

| binding [1] | binding [2] | Substance |
| --- | --- | --- |
| no binding | – | CRM1 (endogenous, mouse) (from UniProt Q6P5F9 1-1071) |
| binds | binds | Ca2+/calmodulin-dependent protein kinase II beta, CaMKIIβ (endogenous, mouse) (from UniProt P28652 1-542) (enzyme) |
